Source: PubChem BioAssay AID1259280 (Sanger Institute, 2017)
Assay: 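Essential kinases and drug-combination synergies in SNU407 cells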 (primary screen). System: human SNU407 colorectal cancer cells. Reagent: siRNA pool against human genes. Conditions: anchor drugs BYL719 at 1 µM, cetuximab at 5 µg/ml or trametinib at 10 nM, or DMSO vehicle alone; exposure time not given. Read-out: 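Viability per well scaled to a non-targeting pool and averaged over replicates, with a robust z-score from controls and a synergy score per anchor drug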. Direction: viability z-score, no drug and viability vs control, no drug: higher = more cells survive the knock-down; synergy with trametinib and synergy with BYL719 and synergy with cetuximab: higher = stronger synergy of knock-down with drug. Call rule: 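a knock-down counts as essential when its robust viability z-score without drug is below -3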. Meaning of the calls: active = essential (knock-down alone kills cells); inactive = no change without drug.
The deposit covers 794 reagents; shown is a part drawn at random. In the full data, 12 (1.5%) are marked active. 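Calls cover knock-down without drug only; synergy scores stand apart, values above 0.15 being treated as synergy.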 Viability is capped at 1. Not given: the amount of reagent, the time to read-out.

| target | viability z-score, no drug | viability vs control, no drug (fraction of control) | synergy with trametinib | synergy with BYL719 | synergy with cetuximab | activity call |
| --- | --- | --- | --- | --- | --- | --- |
| ADCK1 (aarF domain containing kinase 1) | 0.901 | 1 | 0.0634 | 0.15 | 0.0417 | inactive |
| MAPK14 (mitogen-activated protein kinase 14) | -0.0718 | 0.926 | 0.014 | -0.0352 | 0.0294 | inactive |
| MAPK1 (mitogen-activated protein kinase 1) | -1.21 | 0.838 | -0.00613 | 0.00433 | 0.0598 | inactive |
| SRP72 (signal recognition particle 72) | 0.741 | 0.988 | 0.0278 | -0.0715 | 0.0163 | inactive |
| CDC42BPB (CDC42 binding protein kinase beta) | 0.901 | 1 | 0.0544 | -0.0464 | -0.0418 | inactive |
| CSNK1D (casein kinase 1 delta) | 0.252 | 0.95 | 0.143 | 0.097 | 0.0458 | inactive |
| IP6K3 (inositol hexakisphosphate kinase 3) | 0.901 | 1 | -0.029 | 0.0937 | 0.0825 | inactive |
| ASPM (assembly factor for spindle microtubules) | -0.21 | 0.915 | 0.0687 | -0.052 | 0.0833 | inactive |
| SKAP1 (src kinase associated phosphoprotein 1) | 0.787 | 0.991 | -0.00013 | -0.0244 | 0.0104 | inactive |
| CAMK2D (calcium/calmodulin dependent protein kinase II delta) | 0.901 | 1 | -0.2 | -0.138 | -0.0886 | inactive |
| MAST4 | 0.901 | 1 | -0.0481 | 0.0434 | -0.0357 | inactive |
| MPP3 (MAGUK p55 scaffold protein 3) | -1.11 | 0.846 | -0.072 | -0.0154 | 0.00556 | inactive |
| GCK (glucokinase) | -0.312 | 0.907 | -0.0205 | 0.0346 | 0.0325 | inactive |
| CDK3 (cyclin dependent kinase 3) | 0.901 | 1 | 0.118 | 0.0624 | 0.0574 | inactive |
| CERK (ceramide kinase) | 0.901 | 1 | -0.097 | 0.0423 | -0.0406 | inactive |
| TGFBR2 (transforming growth factor beta receptor 2) | 0.482 | 0.968 | 0.0832 | 0.102 | 0.0374 | inactive |
| AGK (acylglycerol kinase) | -1.79 | 0.795 | -0.179 | -0.00764 | -0.137 | inactive |
| DUSP21 (dual specificity phosphatase 21) | -0.304 | 0.908 | -0.0947 | 0.0245 | -0.101 | inactive |
| FGFR4 (fibroblast growth factor receptor 4) | -0.737 | 0.875 | -0.125 | -0.0301 | -0.0271 | inactive |
| PTPRU (protein tyrosine phosphatase receptor type U) | -0.576 | 0.887 | -0.0361 | 0.0323 | -0.00605 | inactive |
| ULK3 (unc-51 like kinase 3) | -0.687 | 0.879 | -0.112 | -0.11 | -0.0952 | inactive |
| WHR1 (winged helix repair factor 1) | -1.26 | 0.835 | -0.126 | -0.0526 | -0.186 | inactive |
| PRPS1L1 (phosphoribosyl pyrophosphate synthetase 1 like 1) | 0.901 | 1 | 0.0611 | 0.0723 | 0.0158 | inactive |
| BCOR (BCL6 corepressor) | 0.0769 | 0.937 | -0.0149 | 0.0422 | -0.00394 | inactive |
| MAST3 (microtubule associated serine/threonine kinase 3) | 0.777 | 0.991 | 0.072 | 0.153 | -0.00583 | inactive |
| PIK3R5 (phosphoinositide-3-kinase regulatory subunit 5) | 0.171 | 0.944 | 0.0496 | 0.076 | 0.0438 | inactive |
| STK38 (serine/threonine kinase 38) | -0.357 | 0.904 | 0.0856 | 0.126 | 0.0344 | inactive |
| PEAK1 (pseudopodium enriched atypical kinase 1) | -1.96 | 0.781 | -0.084 | -0.014 | -0.0932 | inactive |
| MAP3K2 (mitogen-activated protein kinase kinase kinase 2) | 0.457 | 0.966 | -0.0294 | -0.00393 | 0.0319 | inactive |
| PIK3CB | 0.901 | 1 | -0.0101 | 0.043 | 0.0558 | inactive |
| BUB1 (BUB1 mitotic checkpoint serine/threonine kinase) | 0.246 | 0.95 | -0.0811 | 0.0447 | 0.0654 | inactive |
| MAP4K3 (mitogen-activated protein kinase kinase kinase kinase 3) | -0.274 | 0.91 | 0.0521 | 0.0841 | -0.0936 | inactive |
| ANKK1 (ankyrin repeat and kinase domain containing 1) | -0.472 | 0.895 | -0.0515 | 0.0245 | 0.0612 | inactive |
| MGA (MAX dimerization protein MGA) | -1.71 | 0.8 | -0.0786 | -0.1 | -0.0652 | inactive |
| NEK7 (NIMA related kinase 7) | 0.382 | 0.96 | -0.0798 | -0.101 | -0.0144 | inactive |
| CERT1 (ceramide transporter 1) | -0.354 | 0.904 | 0.0351 | -0.0181 | -0.00459 | inactive |
| TAF1 (TATA-box binding protein associated factor 1) | -0.617 | 0.884 | 0.135 | 0.0673 | 0.107 | inactive |
| PIP5KL1 (phosphatidylinositol-4-phosphate 5-kinase like 1) | 0.794 | 0.992 | -0.0887 | 0.0556 | 0.0468 | inactive |
| CKB (creatine kinase B) | 0.901 | 1 | -0.163 | -0.0733 | -0.000355 | inactive |
| GRK6 (G protein-coupled receptor kinase 6) | -0.966 | 0.857 | -0.00559 | 0.00648 | 0.00756 | inactive |
| HASPIN (histone H3 associated protein kinase) | 0.285 | 0.953 | 0.0174 | 0.0526 | 0.0412 | inactive |
| STRADA (STE20 related adaptor alpha) | -0.386 | 0.902 | 0.0529 | 0.0174 | 0.00709 | inactive |
| EPHB3 (EPH receptor B3) | -1.11 | 0.846 | 0.0494 | 0.101 | 0.0202 | inactive |
| ZC3H11A (zinc finger CCCH-type containing 11A) | -1.21 | 0.838 | -0.0376 | -0.0257 | -0.0721 | inactive |
| DAPK1 (death associated protein kinase 1) | 0.901 | 1 | 0.118 | 0.112 | 0.0623 | inactive |
| PRKCSH (PRKCSH beta subunit of glucosidase II) | -0.0643 | 0.926 | 0.0955 | 0.0164 | 0.0114 | inactive |
| ELP1 (elongator acetyltransferase complex subunit 1) | 0.442 | 0.965 | -0.0434 | 0.149 | -0.0841 | inactive |
| PRKCI (protein kinase C iota) | 0.901 | 1 | 0.101 | 0.0683 | 0.0613 | inactive |
| MAP3K19 (mitogen-activated protein kinase kinase kinase 19) | -0.506 | 0.893 | 0.0106 | -0.0626 | -0.0465 | inactive |
| PKN2 (protein kinase N2) | -0.0873 | 0.924 | 0.0209 | 0.151 | 0.0933 | inactive |
| VRK3 (VRK serine/threonine kinase 3) | 0.901 | 1 | -0.0812 | 0.0108 | -0.0886 | inactive |
| DDR2 (discoidin domain receptor tyrosine kinase 2) | 0.212 | 0.947 | -0.132 | -0.0301 | -0.107 | inactive |
| HIPK1 (homeodomain interacting protein kinase 1) | -0.142 | 0.92 | -0.0655 | -0.0607 | -0.133 | inactive |
| ATRX (ATRX chromatin remodeler) | 0.901 | 1 | -0.0595 | -0.0971 | -0.0886 | inactive |
| PRKAA1 (protein kinase AMP-activated catalytic subunit alpha 1) | 0.312 | 0.955 | -0.0306 | -0.0691 | -0.121 | inactive |
| CDK11B (cyclin dependent kinase 11B) | 0.901 | 1 | 0.00251 | -0.0582 | 0.0843 | inactive |
| NUP98 (nucleoporin 98 and 96 precursor) | -3.3 | 0.679 | -0.155 | -0.0881 | 0.0133 | active |
| CHEK1 (checkpoint kinase 1) | -2.65 | 0.728 | -0.0603 | 0.0113 | -0.0272 | inactive |
| CLK4 (CDC like kinase 4) | -2.37 | 0.75 | -0.156 | -0.0161 | -0.114 | inactive |
| PRKAG2 (protein kinase AMP-activated non-catalytic subunit gamma 2) | -0.253 | 0.912 | -0.0816 | -0.0998 | -0.0907 | inactive |
| TPD52L3 (TPD52 like 3) | -0.458 | 0.896 | -0.0226 | -0.0989 | -0.0737 | inactive |
| MLKL (mixed lineage kinase domain like pseudokinase) | 0.901 | 1 | -0.00809 | -0.104 | -0.0886 | inactive |
| GRK1 (G protein-coupled receptor kinase 1) | -0.402 | 0.9 | -0.119 | -0.0601 | 0.00516 | inactive |

Records listed so far whose gene name begins with B or b (2):
| target | viability z-score, no drug | viability vs control, no drug (fraction of control) | synergy with trametinib | synergy with BYL719 | synergy with cetuximab | activity call |
| --- | --- | --- | --- | --- | --- | --- |
| BCOR (BCL6 corepressor) | 0.0769 | 0.937 | -0.0149 | 0.0422 | -0.00394 | inactive |
| BUB1 (BUB1 mitotic checkpoint serine/threonine kinase) | 0.246 | 0.95 | -0.0811 | 0.0447 | 0.0654 | inactive |
